According to patent publication US20230248741A1, “Compositions and Methods for Lowering Triglycerides in a Subject with Reduced Kidney Function and Diabetes Mellitus” (Amarin Pharmaceuticals Ireland Limited, priority 2018, published 2023):
At least one structure is not confirmed: it was looked up by name or label, or the drawing left a doubt.

How the values were obtained:
Format in all cases: in vivo, human
[1] = test system: patients on hemodialysis; test: E-EPA 4 g/day versus placebo in patients on hemodialysis; conditions: 4 g per day vs placebo
[2] = test system: patients with chronic kidney disease (eGFR <60 mL/min/1.73 m^2 for ≥3 months); test: ANCHOR post-hoc: lipid and lipoprotein parameters, oxidation and inflammation markers; conditions: 4 g/day
Protocol: CVD-related (e.g., atherogenic) parameters were analyzed in a post-hoc study of 55 patients from the multi-center, placebo-controlled, randomized double-blind, 12-week study described in Example 1. These 55 patients have chronic kidney disease (e.g., eGFR<60 mL/min/1.73 m^2 for ≥3 months). There was no lower limit of eGFR specified.
Subjects: 19 patients were randomized to E-EPA and 36 patients were randomized to placebo. One patient in each group discontinued and was excluded from efficacy analyses (but not safety analyses). EPA levels in plasma and RBC were measured in 23 of the 55 patients. These measurements were taken on 7 of the patients randomized to E-EPA and on 16 of the patients that were randomized to the placebo.
The primary objective of this post-hoc study, which is based on an intention to treat, was to determine if and how 4 g daily of >96% E-EPA affects patients with stage 3 chronic kidney disease (e.g., eGFR<60 mL/min/1.73 m^2 for ≥3 months). The secondary objective was to determine if and how 4 g daily of >96% E-EPA, compared to a placebo, affected CVD-related parameters in patients with a high risk of CVD and fasting TG levels ≥[…] and <500 mg/dL, despite LDL-C goal on statin therapy. These CVD-parameters include lipid levels, lipoprotein levels, and inflammatory markers, such as TC, LDL-C, HDL-C, VLDL-C, VLDL-TG, RLP-C, non-HDL-C, Apo B, Apo C-III, Lp-PLA, hsCRP, and ox-LDL, and in plasma and RBC EPA concentration. CVD-parameters were analyzed for median difference in percent change from baseline to week 12 in subjects receiving 4 g/day of E-EPA and those receiving the placebo.
Analysis: The median difference in percent change from baseline between 4 g/day of E-EPA and placebo for the primary efficacy variable and additional assessments were estimated using the Hodges-Lehmann method (P values from the Wilcoxon rank-sum test for treatment comparisons). […]

[3] = test system: patients with diabetes mellitus and eGFR <90 mL/min/1.73 m^2 for ≥3 months; test: ANCHOR post-hoc: lipids/lipoproteins, apolipoproteins, oxidation and inflammation markers; conditions: 4 g/day; 12 weeks
Protocol: A multi-center, placebo-controlled, randomized, double-blind, 12-week study is performed to evaluate the efficacy and safety of >96% E-EPA in patients with fasting triglyceride levels ≥200 mg/dl and <500 mg/dl despite statin therapy (the mean of two qualifying entry values needs to be ≥185 mg/dl and at least one of the values needs to be ≥200 mg/dl). The primary objective of the study is to determine the efficacy of >96% E-EPA 2 g daily and 4 g daily, compared to placebo, in lowering fasting TG levels in patients with high risk for cardiovascular disease and with fasting TG levels ≥200 mg/dL and <500 mg/dL, despite treatment to LDL-C goal on statin therapy.
The primary efficacy variable for the double-blind treatment period is percent change in TG from baseline to Week 12 endpoint. […]
CVD-related (e.g., atherogenic) parameters were analyzed in a post-hoc study of 198 patients from the multi-center, placebo-controlled, randomized double-blind, 12-week study described in Example 1. […]
Objective. […] CVD-parameters were analyzed for median difference in percent change from baseline to week 12 in subjects receiving 4 g/day of E-EPA and those receiving the placebo.
Subjects: 98 patients were randomized to E-EPA and 100 patients were randomized to placebo. In total, atherogenic parameters were analyzed in all 198 patients, 56% of which were male and 97% of which were white. […]

Question: What does the source list for `CC/C=C\C/C=C\C/C=C\C/C=C\C/C=C\CCCC(=O)OCC` [E-EPA, ethyl eicosapentaenoate]?
Answer: EPA deficiency [1]: corrects the EPA deficiency; EPA/AA ratio [1]: increases the EPA/AA ratio; cardiovascular disease risk [1]: reduces cardiovascular disease risk; LDL-C, non-HDL-C, TC, HDL-C, VLDL-C, VLDL-TGs, RLP-C, Apo B and Apo C-III compared with placebo ([2]; 12 weeks): significantly reduced; hsCRP compared to placebo control ([2]; P=0.1209): no statistically significant changes; ox-LDL and Lp-PLA2 ([2]; both P=0.0068): significantly reduced; LDL-C levels [3]: without increasing LDL-C levels
